These results are taken from the supplement of paper PMC12819154, “High-throughput peptide-centric local stability assay extends protein–ligand identification to membrane proteins, tissues and bacteria” (Nature Structural & Molecular Biology, 2025).

The chains behind the UniProt entries cited, without tags or fusion partners. Where a name states a change or a piece, a line headed by the entry shows the natural chain unless it says otherwise.
UniProt P13010: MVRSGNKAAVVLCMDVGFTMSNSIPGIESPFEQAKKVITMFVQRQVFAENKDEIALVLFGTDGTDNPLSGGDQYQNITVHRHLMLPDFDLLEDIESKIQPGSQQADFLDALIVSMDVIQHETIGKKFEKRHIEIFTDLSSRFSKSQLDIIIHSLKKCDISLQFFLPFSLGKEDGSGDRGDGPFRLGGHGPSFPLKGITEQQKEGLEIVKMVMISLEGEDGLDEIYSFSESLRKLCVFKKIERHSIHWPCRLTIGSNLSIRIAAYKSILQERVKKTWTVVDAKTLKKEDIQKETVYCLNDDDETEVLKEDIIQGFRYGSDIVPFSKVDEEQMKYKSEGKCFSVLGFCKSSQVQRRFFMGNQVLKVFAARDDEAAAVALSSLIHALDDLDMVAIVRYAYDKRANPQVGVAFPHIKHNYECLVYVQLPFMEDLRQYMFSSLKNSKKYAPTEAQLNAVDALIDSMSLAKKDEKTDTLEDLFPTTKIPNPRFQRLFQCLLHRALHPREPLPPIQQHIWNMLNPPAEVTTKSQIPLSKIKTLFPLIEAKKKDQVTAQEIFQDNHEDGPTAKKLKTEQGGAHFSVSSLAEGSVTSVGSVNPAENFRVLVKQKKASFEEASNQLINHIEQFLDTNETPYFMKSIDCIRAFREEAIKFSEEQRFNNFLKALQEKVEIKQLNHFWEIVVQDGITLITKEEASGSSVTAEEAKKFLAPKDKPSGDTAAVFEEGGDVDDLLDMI
UniProt P06730, whole entry: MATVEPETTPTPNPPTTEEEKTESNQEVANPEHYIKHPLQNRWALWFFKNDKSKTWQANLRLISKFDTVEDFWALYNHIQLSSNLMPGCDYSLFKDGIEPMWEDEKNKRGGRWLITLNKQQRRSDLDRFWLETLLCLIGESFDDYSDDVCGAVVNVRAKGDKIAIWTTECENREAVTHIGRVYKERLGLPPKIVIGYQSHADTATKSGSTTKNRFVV
UniProt P09497: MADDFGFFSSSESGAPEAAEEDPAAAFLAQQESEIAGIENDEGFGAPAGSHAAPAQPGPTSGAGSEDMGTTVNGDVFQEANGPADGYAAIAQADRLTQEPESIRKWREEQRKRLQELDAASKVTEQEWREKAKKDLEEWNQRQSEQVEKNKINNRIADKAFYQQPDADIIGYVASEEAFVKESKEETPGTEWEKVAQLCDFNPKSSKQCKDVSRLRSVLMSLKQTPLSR
UniProt P11388: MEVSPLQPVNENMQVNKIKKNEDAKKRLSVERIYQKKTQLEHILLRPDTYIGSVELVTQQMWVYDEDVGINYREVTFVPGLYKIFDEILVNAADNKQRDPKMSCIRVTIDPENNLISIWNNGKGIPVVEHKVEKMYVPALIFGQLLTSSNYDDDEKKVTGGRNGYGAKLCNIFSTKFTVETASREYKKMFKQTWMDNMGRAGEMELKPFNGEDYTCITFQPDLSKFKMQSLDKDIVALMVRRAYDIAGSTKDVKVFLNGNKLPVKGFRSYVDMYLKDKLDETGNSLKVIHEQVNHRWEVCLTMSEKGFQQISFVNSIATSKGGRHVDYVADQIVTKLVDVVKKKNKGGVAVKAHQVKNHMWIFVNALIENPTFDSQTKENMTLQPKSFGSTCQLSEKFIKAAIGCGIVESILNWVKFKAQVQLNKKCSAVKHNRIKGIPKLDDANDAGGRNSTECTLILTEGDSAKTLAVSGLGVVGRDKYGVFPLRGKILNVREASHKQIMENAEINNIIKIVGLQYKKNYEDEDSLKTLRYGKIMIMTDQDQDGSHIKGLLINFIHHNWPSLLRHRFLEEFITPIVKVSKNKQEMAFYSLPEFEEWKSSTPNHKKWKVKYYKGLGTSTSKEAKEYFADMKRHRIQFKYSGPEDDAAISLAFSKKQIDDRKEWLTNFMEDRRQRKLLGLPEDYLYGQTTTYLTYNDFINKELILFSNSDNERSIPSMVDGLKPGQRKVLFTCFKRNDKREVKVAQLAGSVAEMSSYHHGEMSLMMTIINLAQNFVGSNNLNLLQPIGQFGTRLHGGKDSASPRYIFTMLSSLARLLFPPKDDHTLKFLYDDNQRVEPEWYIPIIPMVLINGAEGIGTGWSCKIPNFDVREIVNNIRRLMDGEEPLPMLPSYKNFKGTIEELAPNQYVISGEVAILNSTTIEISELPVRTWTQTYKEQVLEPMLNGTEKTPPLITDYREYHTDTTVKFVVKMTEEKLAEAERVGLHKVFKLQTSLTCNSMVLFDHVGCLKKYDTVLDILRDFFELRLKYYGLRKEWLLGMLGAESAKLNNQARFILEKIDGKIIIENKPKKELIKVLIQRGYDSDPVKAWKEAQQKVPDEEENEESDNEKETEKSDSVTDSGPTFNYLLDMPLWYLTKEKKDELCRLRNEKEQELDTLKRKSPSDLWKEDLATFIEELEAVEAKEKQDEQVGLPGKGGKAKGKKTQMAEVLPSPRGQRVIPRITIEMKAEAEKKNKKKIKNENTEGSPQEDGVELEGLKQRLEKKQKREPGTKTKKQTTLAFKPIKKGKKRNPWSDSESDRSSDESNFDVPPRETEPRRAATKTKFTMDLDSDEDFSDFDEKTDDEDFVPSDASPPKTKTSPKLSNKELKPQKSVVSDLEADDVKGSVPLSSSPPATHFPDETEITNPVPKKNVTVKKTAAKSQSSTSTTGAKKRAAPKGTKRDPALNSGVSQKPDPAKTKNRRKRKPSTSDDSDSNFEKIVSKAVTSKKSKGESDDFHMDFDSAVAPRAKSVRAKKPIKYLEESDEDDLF
UniProt P11309, whole entry, looked up: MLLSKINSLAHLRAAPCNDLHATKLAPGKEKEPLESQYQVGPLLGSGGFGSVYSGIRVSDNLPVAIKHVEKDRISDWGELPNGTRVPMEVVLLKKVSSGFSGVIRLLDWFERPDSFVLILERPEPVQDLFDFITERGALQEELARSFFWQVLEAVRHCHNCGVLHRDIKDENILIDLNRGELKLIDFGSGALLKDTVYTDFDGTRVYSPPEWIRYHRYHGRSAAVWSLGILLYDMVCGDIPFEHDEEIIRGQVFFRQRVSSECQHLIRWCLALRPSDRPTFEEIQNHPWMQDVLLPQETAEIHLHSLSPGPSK
UniProt P08123: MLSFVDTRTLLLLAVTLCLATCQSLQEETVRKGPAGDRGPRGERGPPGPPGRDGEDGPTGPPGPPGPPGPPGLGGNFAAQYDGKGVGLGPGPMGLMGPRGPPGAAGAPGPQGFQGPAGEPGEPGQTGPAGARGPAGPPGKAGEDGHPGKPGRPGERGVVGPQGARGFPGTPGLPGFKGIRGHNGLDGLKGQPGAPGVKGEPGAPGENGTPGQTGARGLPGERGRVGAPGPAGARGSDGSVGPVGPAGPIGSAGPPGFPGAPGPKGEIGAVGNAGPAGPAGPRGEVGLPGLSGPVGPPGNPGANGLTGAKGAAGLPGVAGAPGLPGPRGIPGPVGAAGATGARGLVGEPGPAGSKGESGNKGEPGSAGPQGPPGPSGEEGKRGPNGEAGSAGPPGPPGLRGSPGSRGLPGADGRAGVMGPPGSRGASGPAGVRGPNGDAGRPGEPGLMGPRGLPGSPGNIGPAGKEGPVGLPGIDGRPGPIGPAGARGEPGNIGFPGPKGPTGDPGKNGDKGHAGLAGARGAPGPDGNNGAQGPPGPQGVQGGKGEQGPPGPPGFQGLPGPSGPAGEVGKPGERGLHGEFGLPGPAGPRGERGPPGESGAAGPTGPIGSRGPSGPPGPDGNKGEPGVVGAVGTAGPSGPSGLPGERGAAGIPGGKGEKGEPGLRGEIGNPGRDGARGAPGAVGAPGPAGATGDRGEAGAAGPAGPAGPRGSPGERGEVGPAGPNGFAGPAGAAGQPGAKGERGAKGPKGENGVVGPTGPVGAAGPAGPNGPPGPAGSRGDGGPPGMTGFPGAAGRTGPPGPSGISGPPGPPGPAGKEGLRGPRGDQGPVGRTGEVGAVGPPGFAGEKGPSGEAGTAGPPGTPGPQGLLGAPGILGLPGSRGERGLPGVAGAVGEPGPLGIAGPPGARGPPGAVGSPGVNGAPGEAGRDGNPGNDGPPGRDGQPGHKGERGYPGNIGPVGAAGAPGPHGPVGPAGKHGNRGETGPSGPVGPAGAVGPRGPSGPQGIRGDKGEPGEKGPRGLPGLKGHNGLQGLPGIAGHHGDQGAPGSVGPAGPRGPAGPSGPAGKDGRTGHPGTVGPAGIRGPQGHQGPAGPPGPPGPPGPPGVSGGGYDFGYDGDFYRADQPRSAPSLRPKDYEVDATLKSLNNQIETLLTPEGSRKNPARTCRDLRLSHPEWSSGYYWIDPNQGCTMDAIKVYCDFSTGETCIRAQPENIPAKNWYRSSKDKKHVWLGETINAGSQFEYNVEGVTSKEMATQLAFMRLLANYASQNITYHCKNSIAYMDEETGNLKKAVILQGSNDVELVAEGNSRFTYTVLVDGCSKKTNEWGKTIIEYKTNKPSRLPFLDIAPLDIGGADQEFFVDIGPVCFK
UniProt P05114: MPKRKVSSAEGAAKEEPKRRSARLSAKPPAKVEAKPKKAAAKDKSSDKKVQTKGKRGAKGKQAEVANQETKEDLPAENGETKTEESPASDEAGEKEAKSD
UniProt P00966: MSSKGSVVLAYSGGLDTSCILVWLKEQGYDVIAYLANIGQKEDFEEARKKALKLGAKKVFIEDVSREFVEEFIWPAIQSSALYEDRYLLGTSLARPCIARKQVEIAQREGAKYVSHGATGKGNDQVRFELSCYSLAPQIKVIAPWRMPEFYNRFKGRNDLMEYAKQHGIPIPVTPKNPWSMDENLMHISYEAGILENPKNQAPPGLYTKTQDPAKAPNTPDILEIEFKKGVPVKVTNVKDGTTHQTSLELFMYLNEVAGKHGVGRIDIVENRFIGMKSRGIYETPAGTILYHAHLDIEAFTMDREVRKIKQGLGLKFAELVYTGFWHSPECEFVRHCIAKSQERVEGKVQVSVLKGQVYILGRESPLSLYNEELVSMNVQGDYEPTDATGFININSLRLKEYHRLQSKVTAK

This is one part of the list. Most values lie at the level of the controls, where differences are scatter.

Compound in the assay: Cc1nc(Nc2ncc(C(=O)Nc3c(C)cccc3Cl)s2)cc(N2CCN(CCO)CC2)n1 [dasatinib]
The experiment in a line: log2 fold change of tryptic peptide abundance, ligand vs vehicle (limited proteolysis) (log2 ratio); higher = more trypsin-susceptible (destabilized). The following applies: ligand concentration: 5 uM; sample: K562 cleared lysate.
Turning to “XRCC5 (peptide sequence: SQLDIIIHSLKK, peptide start residue: 145) (UniProt P13010)”, the log2 fold change is 0.201.

In the case of “EIF4E (peptide sequence: SKTWQANLR, peptide start residue: 53) (UniProt P06730)”, the log2 fold change is -0.268.

For the target “CLTB (peptide sequence: VTEQEWR, peptide start residue: 123) (UniProt P09497)”, the log2 fold change is 0.0986.

Take “TOP2A (peptide sequence: FTVETASR, peptide start residue: 177) (UniProt P11388)”: the log2 fold change is 0.203.

With “PIM1 (peptide sequence: GALQEELAR, peptide start residue: 137) (UniProt P11309)”, the log2 fold change was -0.426.

Turning to “COL1A2 (peptide sequence: GPAGPSGPAGK, peptide start residue: 1054) (UniProt P08123)”, the log2 fold change was 0.142.

Take “HMGN1 (peptide sequence: GKQAEVANQETK, peptide start residue: 60) (UniProt P05114)”: the log2 fold change came out at 0.191.

On to “ASS1 (peptide sequence: NQAPPGLYTK, peptide start residue: 200) (UniProt P00966)”, for which the log2 fold change stood at 0.216.
